According to the supplement of paper PMC10338343:
± gives the standard deviation. The entries are a selection whose mix differs from that of the whole data set. The uncertainty is large for many entries.

Each sequence was assayed on MILI (PIWIL2) piRISC loaded with piRNA #2 (26 nt) (assay: pre-steady-state target cleavage rate (min^-1); MIWI and MILI are mouse PIWI proteins and EfPiwi is from a freshwater sponge; tags in brackets are library labels; higher = faster piRNA-guided slicing of the target). Settings: guide: piRNA #2 5'p-UUAGGUAACCCAGUAGAUCCAGAGGA; auxiliary factor: 500 nM mouse GTSF1.
Summary of the method: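 Three pooled Cleave-'n-Seq trials supplied the data, with k3 capped at 0.0001 min^-1. In each, […] transcribed, DNA-blocked target RNA library and 1 nM active affinity-purified piRISC with one synthetic guide reacted in HEPES–potassium acetate buffer at 33 °C for 0–8 or 0–960 min, with or without 500 nM GTSF1 partner protein. Uncleaved targets were sequenced and normalised to depth and to weakly complementary targets. A burst-and-steady-state fit provided the pre-steady-state cleavage rate.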
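Also: 1 nM active piRISC with 0.1 nM target library at 33 °C single turnover.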

Sequence | pre-steady-state target cleavage rate
CUUAAGGACUGGUUCUACUGGGAUACCUAA | 0.00377 ± 0.011
CUUAACCUCUGGAUCUACUGGCUUACCAAA | 0.000518 ± 0.013
CUUAAGGAGACCAUCUACUGGUUUACCUAA | 0.000718 ± 0.0095
CUUAUCCUCUGGAUCUACUGGAUUACCUAA | 0.0307 ± 0.0083
CUUAAGGAGACGAUCUACUGGGUUACCUAC [g2:g19:cont:t1C] | 0.00107 ± 0.013
CUUAAGGACUGGAUCUACUGCGUUACCAAA | 0.000569 ± 0.03
CUUAAGGAGUGGAUGUACUGGGUUAGCUAA | 0.00198 ± 0.013
CUUAACCUCUGGAUCUACUCGGUUACCUUA | 0.00189 ± 0.0079
CUUAAGGAGACGAUCUGCUGGGUUACCUAA | 0.00247 ± 0.0045
CUUAAGGAGACCAUCUACUGGGUUACGUUA | 0.000277 ± 0.035
CUUAAGGAGACCUUCUACUGGGUUACCUAA [g2:g17:cont:t1A] | 0.00117 ± 0.0051
CUUAAGCUCAGGAUCUACUCGGUUACCUAA | 0.000954 ± 0.017
CUUAAGGAGUGGAUCUACUGUGGUUACCUAA | 0.000924 ± 0.01
CUUAAGGAGACCUAGAACUGGGUCACCUAA | 0.000262 ± 0.026
CUUAAGGAGAGGAUCUACUGGGUUACGUAA | 0.00115 ± 0.011
CUUAAGGAGACCUACUACUGGGUGACCUAA | 0.000154 ± 0.061
CUUAAGGAGACCUUCUACUGCGUUACCUUA | 0.000807 ± 0.022
CUUAAGGACUGGAUCUACGGGGUUACCUAA | 0.0466 ± 0.013
CUUAAGGAGACGAUCCUACUGGGUUACCUAA | 0.00105 ± 0.01
CUUAAGGACUGGAUGUACUGGGUUUCCUAA | 0.00686 ± 0.01

Shown with tabs: entries from further up.
Sequence	pre-steady-state target cleavage rate
CUUAAGGAGACGAUCUACUGGGUUACCUAC [g2:g19:cont:t1C]	0.00107 ± 0.013
CUUAAGGAGACCUACUACUGGGUGACCUAA	0.000154 ± 0.061
CUUAAGGAGACGAUCCUACUGGGUUACCUAA	0.00105 ± 0.01

Next records

Sequence | pre-steady-state target cleavage rate
CUUAAGGUCUGGAUCUAACUGGGUUACCUAA | 0.000306 ± 0.012
CUUAAGGAGAGGAACUACUGCGUUACCUAA | 0.000562 ± 0.016
CUUAAGGAGUGGAUCUCACUGGGUUACCUAA | 0.000181 ± 0.022
CUUAAGGAGACCUUCUACUGGGAUACCUUA | 0.000228 ± 0.026
CUUAUCCACUGGAUCUACUGGCUUACCUAA | 0.000737 ± 0.016
CUUAAGGUCUCGAUCUACUGGCUUACCUAA | 0.000919 ± 0.016
CUUAAGGAGUGGAUCUACAGGGUUACGUAA | 0.00165 ± 0.0062
CUUAAGGACUGGAUCUACUGGGUCUACCUAA | 0.00239 ± 0.013
CUUAAGGAGUGGAUCAAGUGGGUUACCUAA | 0.000352 ± 0.011
CUUAAGGAGACCUUCUACCUGGGUUACCUAA | 0.000919 ± 0.014
CUUAAGGAGAGGAACUACUGGGUAACCUAA | 0.001 ± 0.012
CUUAAGCUCUGGAUCUAGACGGUUACCUAA | 0.00153 ± 0.0058
CUUAAGGAGUAGAUCUACUGGGUUACCUAA | 0.00155 ± 0.011
CUUAAGGAGAGGAUCUACACGGUUACCUAA | 0.000672 ± 0.01
CUUAAGGAGACCUUCUUCUGGGAUACCUAA | 0.00073 ± 0.019
CUUAAGGACAGGAACUACUGGGUUACCUAA | 0.00366 ± 0.013
CUUAAGGAGAGGAUCUACUGGGUUCACCUAA | 0.00293 ± 0.0035
CUUAAGGAGACCUUGUUCUGGGUUACCUAA | 0.000716 ± 0.018
CUUAAGGAGAGGAUCUACUGGGUGUACCUAA | 0.00182 ± 0.0098
